No constants are given. Whether binding was seen depends on the method and setting. Binding seen in cells or lysates may run through a third protein. Some binding calls cover weakened binding; strength is not graded here.
Target: T1, IκB kinase complex-associated protein (IKAP) (human (endogenous in HEK 293nt)) (UniProt O95163)
T1 sequence: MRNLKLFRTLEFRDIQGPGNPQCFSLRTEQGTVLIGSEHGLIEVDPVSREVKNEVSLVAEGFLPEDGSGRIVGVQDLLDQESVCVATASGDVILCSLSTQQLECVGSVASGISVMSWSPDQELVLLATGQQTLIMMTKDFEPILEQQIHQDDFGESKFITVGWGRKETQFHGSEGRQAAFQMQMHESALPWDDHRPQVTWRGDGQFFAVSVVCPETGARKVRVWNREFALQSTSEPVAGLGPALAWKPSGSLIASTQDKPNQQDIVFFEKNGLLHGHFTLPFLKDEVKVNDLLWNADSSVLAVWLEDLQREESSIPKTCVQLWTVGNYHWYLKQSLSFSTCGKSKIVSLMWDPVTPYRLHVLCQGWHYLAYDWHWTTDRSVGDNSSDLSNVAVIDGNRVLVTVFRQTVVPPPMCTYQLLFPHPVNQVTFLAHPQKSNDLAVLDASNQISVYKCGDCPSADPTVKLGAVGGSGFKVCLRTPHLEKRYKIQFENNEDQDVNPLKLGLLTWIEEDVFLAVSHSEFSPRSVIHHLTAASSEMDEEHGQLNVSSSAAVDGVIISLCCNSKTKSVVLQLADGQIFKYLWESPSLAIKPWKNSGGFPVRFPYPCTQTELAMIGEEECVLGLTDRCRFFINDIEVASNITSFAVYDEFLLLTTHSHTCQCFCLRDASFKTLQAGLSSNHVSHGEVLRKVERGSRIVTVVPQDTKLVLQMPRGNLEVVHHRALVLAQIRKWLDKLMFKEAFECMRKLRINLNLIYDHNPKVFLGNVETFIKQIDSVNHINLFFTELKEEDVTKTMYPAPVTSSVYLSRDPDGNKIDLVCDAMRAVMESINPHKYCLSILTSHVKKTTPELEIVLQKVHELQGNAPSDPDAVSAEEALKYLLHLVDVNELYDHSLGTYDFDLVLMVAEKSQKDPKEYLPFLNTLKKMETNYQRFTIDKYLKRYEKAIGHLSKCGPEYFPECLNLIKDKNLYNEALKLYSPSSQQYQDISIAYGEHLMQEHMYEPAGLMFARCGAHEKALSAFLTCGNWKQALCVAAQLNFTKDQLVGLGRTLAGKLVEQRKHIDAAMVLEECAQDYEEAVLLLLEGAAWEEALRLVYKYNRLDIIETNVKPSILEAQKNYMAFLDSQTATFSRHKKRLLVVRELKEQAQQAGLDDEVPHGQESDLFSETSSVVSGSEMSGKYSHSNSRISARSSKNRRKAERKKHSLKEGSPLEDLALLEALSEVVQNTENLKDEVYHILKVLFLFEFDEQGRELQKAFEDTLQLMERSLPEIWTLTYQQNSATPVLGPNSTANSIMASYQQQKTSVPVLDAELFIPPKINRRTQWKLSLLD
Assay: co-IP; endogenous IKAP precipitated with anti-IKAP antibody on protein A Dynabeads from HEK 293nt lysate; cells crosslinked with 0.1% formaldehyde, sonicated; IP buffer 50 mM HEPES pH 7.6, 500 mM LiCl, 1 mM EDTA, 0.7% DOC, 1% NP-40, 0.1% SDS; 12 h at 4°C; western blot

By UniProt entry, the sequences of proteins in these tests, tags left out.
UniProt Q9UBN7: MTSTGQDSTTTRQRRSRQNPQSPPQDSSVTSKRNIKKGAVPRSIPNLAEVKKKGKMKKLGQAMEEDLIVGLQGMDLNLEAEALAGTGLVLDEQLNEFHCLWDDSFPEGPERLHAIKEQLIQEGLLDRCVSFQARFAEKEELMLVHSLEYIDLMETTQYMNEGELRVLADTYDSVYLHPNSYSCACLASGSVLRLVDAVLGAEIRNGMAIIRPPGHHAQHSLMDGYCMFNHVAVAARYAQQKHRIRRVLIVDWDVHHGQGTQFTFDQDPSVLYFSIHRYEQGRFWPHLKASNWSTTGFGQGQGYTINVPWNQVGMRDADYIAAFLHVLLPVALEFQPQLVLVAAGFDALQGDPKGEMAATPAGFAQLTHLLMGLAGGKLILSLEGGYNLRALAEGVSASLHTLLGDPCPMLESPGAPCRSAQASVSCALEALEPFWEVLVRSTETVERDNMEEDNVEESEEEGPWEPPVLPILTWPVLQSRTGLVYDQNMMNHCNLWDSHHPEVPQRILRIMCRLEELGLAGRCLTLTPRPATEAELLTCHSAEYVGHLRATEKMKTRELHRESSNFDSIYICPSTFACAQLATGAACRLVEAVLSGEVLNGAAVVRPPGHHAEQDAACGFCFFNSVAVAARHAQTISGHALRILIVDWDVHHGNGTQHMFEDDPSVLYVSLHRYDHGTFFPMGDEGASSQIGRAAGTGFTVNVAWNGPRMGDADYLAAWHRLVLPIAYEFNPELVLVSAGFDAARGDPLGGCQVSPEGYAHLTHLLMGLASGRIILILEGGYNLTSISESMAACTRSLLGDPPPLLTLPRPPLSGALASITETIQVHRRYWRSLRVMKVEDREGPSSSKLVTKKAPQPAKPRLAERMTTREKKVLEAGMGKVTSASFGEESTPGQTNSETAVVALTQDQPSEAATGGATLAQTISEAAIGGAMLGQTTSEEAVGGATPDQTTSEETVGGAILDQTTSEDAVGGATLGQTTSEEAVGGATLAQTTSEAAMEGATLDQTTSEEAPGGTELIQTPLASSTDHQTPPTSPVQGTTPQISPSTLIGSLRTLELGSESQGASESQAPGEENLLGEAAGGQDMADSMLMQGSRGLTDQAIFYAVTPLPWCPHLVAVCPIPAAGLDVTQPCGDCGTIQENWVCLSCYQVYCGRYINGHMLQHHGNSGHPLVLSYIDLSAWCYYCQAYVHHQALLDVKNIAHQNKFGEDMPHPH

## histone deacetylase 6 (HDAC6) (from UniProt Q9UBN7 1-1215) (enzyme)
  binding: binds
